Experimental data: PubChem BioAssay AID1259425 (University of Nebraska Medical Center, 2018)
The deposit covers about 14,000 reagents; below is a part drawn at random. Further read-outs or replicates are left out here. Not stated in the record: the time to read-out.

Test: 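Seek colon cancer weak points whose silencing resembles KSR1 loss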 (primary screen)
System: HCT116 human colon cancer cells
Reagent: siRNA pool against human genes, 50 nM siRNA
Measured: 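After 50 nM siRNA pool, branched-DNA assay measures six marker transcripts per well, minus blank, normalised to the geometric mean of two housekeeping transcripts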
Scale: BNIP3L mRNA: higher = more BNIP3L transcript after knockdown

Against PPP2CB, the entry reads BNIP3L mRNA, set 1 = 0.0722.
Depletion of MYO7A came out at: BNIP3L mRNA, set 1 = 0.0756.
ADI1 gave BNIP3L mRNA, set 1 = 0.156.
Silencing of CNTN3 came out at: BNIP3L mRNA, set 1 = 0.0508.
Knock-down of ATP6V1G2 came out at: BNIP3L mRNA, set 1 = 0.119.
Silencing of LINC00115 came out at: BNIP3L mRNA, set 1 = 0.136.
Depletion of H1-0 resulted in: BNIP3L mRNA, set 1 = 0.0917.
PPCDC showed BNIP3L mRNA, set 1 = 0.0875.
After knock-down of ACAP2, the record shows BNIP3L mRNA, set 1 = 0.106.
CEP57 showed BNIP3L mRNA, set 1 = 0.109.
Depletion of AFAP1-AS1 gave: BNIP3L mRNA, set 1 = 0.0843.
Against PBLD, the entry reads BNIP3L mRNA, set 1 = 0.0667.

In a second layout: entries from further up
{"gene":"CNTN3","BNIP3L mRNA, set 1":0.0508}
{"gene":"ATP6V1G2","BNIP3L mRNA, set 1":0.119}
{"gene":"LINC00115","BNIP3L mRNA, set 1":0.136}
{"gene":"H1-0","BNIP3L mRNA, set 1":0.0917}

Continued:
With knock-down of STAM2, the screen gave BNIP3L mRNA, set 1 = 0.118.
Knock-down of MT-ND1 came out at: BNIP3L mRNA, set 1 = 0.195.
Against ADAMTS12, the entry reads BNIP3L mRNA, set 1 = 0.0684.
Knock-down of GPT2 resulted in: BNIP3L mRNA, set 1 = 0.0792.
After knock-down of RPS12, the screen gave BNIP3L mRNA, set 1 = 0.0832.
With knock-down of MRAP, the screen gave BNIP3L mRNA, set 1 = 0.187.
Against NR1I2 the deposit lists BNIP3L mRNA, set 1 = 0.0574.
With knock-down of SPRY4 the results were BNIP3L mRNA, set 1 = 0.101.
For SMAP1, the entry reads BNIP3L mRNA, set 1 = 0.0519.
VCY scored BNIP3L mRNA, set 1 = 0.131.
Against CPNE3, the entry reads BNIP3L mRNA, set 1 = 0.0573.
Knock-down of PLCH2 resulted in: BNIP3L mRNA, set 1 = 0.0469.
After knock-down of FAM220A the results were BNIP3L mRNA, set 1 = 0.161.
After knock-down of C8orf17, the screen gave BNIP3L mRNA, set 1 = 0.306.
After knock-down of TARS2, the record shows BNIP3L mRNA, set 1 = 0.112.
CACNG5 scored BNIP3L mRNA, set 1 = 0.0887.
Against HOMER1, the values are BNIP3L mRNA, set 1 = 0.0954.
ARMC7 showed BNIP3L mRNA, set 1 = 0.0956.
Depletion of RBM8A came out at: BNIP3L mRNA, set 1 = 0.249.
With knock-down of SERPINA10, the screen gave BNIP3L mRNA, set 1 = 0.177.
CASC3 showed BNIP3L mRNA, set 1 = 0.17.
With knock-down of RBM23, the record shows BNIP3L mRNA, set 1 = 0.144.
DGKG showed BNIP3L mRNA, set 1 = 0.0451.
For EHD4, the entry reads BNIP3L mRNA, set 1 = 0.0862.
